Results on three molecules are retold here after article PMC2860244.

Amino acid sequences for entries named in this document (tags omitted).
UniProt P20263: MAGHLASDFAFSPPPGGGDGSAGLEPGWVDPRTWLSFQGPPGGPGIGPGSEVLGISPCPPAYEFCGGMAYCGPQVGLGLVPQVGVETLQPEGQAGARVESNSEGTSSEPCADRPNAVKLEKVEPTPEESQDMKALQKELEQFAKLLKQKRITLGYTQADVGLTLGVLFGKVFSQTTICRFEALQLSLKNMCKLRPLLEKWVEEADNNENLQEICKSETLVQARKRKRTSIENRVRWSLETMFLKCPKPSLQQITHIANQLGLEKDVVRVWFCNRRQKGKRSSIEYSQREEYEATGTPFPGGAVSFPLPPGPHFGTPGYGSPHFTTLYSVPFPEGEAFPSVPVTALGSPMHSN

B1: cyclic AMP-dependent transcription factor ATF-2 (protein, UniProt P16951 1-487)
chain: MSDDKPFLCTAPGCGQRFTNEDHLAVHKHKHEMTLKFGPARNDSVIVADQTPTPTRFLKNCEEVGLFNELASPFENEFKKASEDDIKKMPLDLSPLATPIIRSKIEEPSVVETTHQDSPLPHPESTTSDEKEVPLAQTAQPTSAIVRPASLQVPNVLLTSSDSSVIIQQAVPSPTSSTVITQAPSSNRPIVPVPGPFPLLLHLPNGQTMPVAIPASITSSNVHVPAAVPLVRPVTMVPSVPGIPGPSSPQPVQSEAKMRLKAALTQQHPPVTNGDTVKGHGSGLVRTQSEESRPQSLQQPATSTTETPASPAHTTPQTQNTSGRRRRAANEDPDEKRRKFLERNRAAASRCRQKRKVWVQSLEKKAEDLSSLNGQLQSEVTLLRNEVAQLKQLLLAHKDCPVTAMQKKSGYHTADKDDSSEDLSVPSSPHTEAIQHSSVSTSNGVSSTSKAEAVATSVLTQMADQSTEPALSQIVMAPPSQAQPSGS
B2: AT-rich interactive domain-containing protein 3B (protein, UniProt Q9Z1N7 1-568)
chain: MEPLQQQQQQQQQKQPQQPLLQMDAREKQGPQTRESQFLYASKLGTQPALLSITPGRPSGSSVLGPLARVPPATPVARMSEQSNVNSEPEEEEGGLEDEDGDDDVAEVAEKEAQAASKYFHMQKVTRQEPRATPMSSLLPVPGLSPQGQQTKEDHTKDASKAPPSVPTAGQPSWSLDEQLKQNGALAWSDDADGGRGREISRDFAKLYELDGDPERKEFLDDLFIFMQKRGTPINRIPIMAKQILDLYMLYKLVTEKGGLVEIINKKIWREITKGLNLPTSITSAAFTLRTQYMKYLYAYECEKKALSSPAELQAAIDGNRREGRRPSYSSSLFGYSPAAAAAAAAAAAAAAASAASAGTPALLSSPKIRFSILGLGSSSGTSASSPRIPPASTLRKGDGVPVPVPNRLAVSGTLAGQQAGNRPGPLEHLRERLESGEPPEKKASRLSEEEQRLVQQAFQRNLFSMARQLPMKIRINGREDRAEPSAPALNLTTSNIGSINMSVDIDGTTYTGVLFAQKPVVHLIAGSTPQSIGSSASSSNSSSSHCSPSPTSSRGTPSAEPSTSWSL
B3: Sal-like protein 3 (protein, UniProt Q62255 1-1320)
chain: MSRRKQAKPQHLKSDEELPPQDGASEHGVPGDGAEDADSGSESRSGSEETSVCEKCCAEFFKWADFLQHKKTCTKNPLVLIVHDDEPAPPSEDFPEPSPASSPSDRTESEVAEEVAPTEGSEVKAATKEAEPMDVEVSTDKGPPGPSVPPPPPALPPQPEPAAFSMPSTNVTLETLLSTKVAVAQFSQGARAGGTTGAGGSVGAVAIPMILEQLVALQQQQIHQLQLIEQIRSQVALMSRQPGPPLKPSASAPGTASVQLQGLTPHAALQLSAGPATASAGSGSTLPAAFDGPQHLSQPASGTSTPCSTSAAPPDSGAHPACSTGPAPGAVAAASSTVGNAVQPQNASTPPALGPGPLLSSASNLPNPLLPQTSSSSVIFPNPLVSIAATANALDPLSALMKHRKGKPPNVSVFEPKASAEDPFFKHKCRFCAKVFGSDSALQIHLRSHTGERPFKCNICGNRFSTKGNLKVHFQRHKEKYPHIQMNPYPVPEYLDNVPTCSGIPYGMSLPPEKPVTTWLDSKPVLPTVPTSVGLQLPPTVPGTHNYTDSPSITPVSRSPQRPSPASSECTSLSPGLNNTESGITVRPESPQPLLGGPSLTKAEPVSLPCTSTRTGDAPVVGGQVSGLPTSAATAVTDSACTSLGSPGLPAVSDQFKAQFPFGGLLDSMQTSETSKLQQLVENIDKKMTDPNQCVICHRVLSCQSALKMHYRTHTGERPFKCKICGRAFTTKGNLKTHFGVHRAKPPLRVQHSCPICQKKFTNAVVLQQHIRMHMGGQIPNTPLPEGLQEAMDADLPFDEKNAETLSSFDDDIDENSMEEDSELKDTASDSSKPLLSYSGSCPPSPPSVISSIAALENQMKMIDSVMNCQQLANLKSVENGSGESDRLSNDSSSAVGDLESRSAGSPALSESSSSQALSPAHSNGESFRSKSPGLGHQEDPQEIPLKTERLDSPPPGPGNGGALDLTAGHPGRPLIKEEAPFSLLFLSRERGKCASTVCGVCGKPFACKSALEIHYRSHTKERRFVCTVCRRGCSTMGNLKQHLLTHKLKELPSQVFDPNFTLGPSHSTPSLASSPAPTMIKMEVNGHSKAIALGEGPALPAGVQVPTGPQTVMSPGLAPMLAPPPRRTPKQHNCQSCGKTFSSASALQIHERTHTGEKPFGCTICGRAFTTKGNLKVHMGTHMWNNAPARRGRRLSVENPMALLGGDALKFSEMFQKDLAARAMNVDPSFWNQYAAAITNGLAMKNNEISVIQNGGIPQLPVSLGGGAIPPLGAMASGVDKARTGSSPPIVSLDKASSETGASRPFARFIEDNKEIGIN

Results are given in words; binding and its absence hold for the method and conditions named. Binding seen in cells or lysates may run through a third protein. Here binding means that the protein was enriched with, or labelled near, the bait; the list need not be complete.

In this test the target is Oct4-FTAP fusion protein (mouse) (UniProt P20263). The experiment in a line: affinity purification with mass spectrometry; one-step purification on anti-FLAG M2 Dynal beads from whole-cell extracts of Oct4-FTAP ESCs against unmodified control cells (AB2.2); 150 mM NaCl, 0.1% NP-40, 90 min, 4°C; elution with AcTEV protease; three independent purifications; LC-MS/MS.
Take B1: the binding result is on record as “binds”.
As for B2, the entry is “binds”; as for B3, “binds”.
